Earlier results in patent US10772837B2, “Modified release multi-layer tablet cannabinoid formulations” (CannTab Therapeutics, Limited, priority 2017, dated 2020).

SMILES: CCCCCc1cc(O)c2c(c1)OC(C)(C)[C@@H]1CCC(C)=C[C@@H]21 [Dronabinol, (−)-trans-Δ9-tetrahydrocannabinol]
- duration of appetite stimulant effect (after administration): ≥ 24 h
- duration of action for psychoactive effects (after oral administration): 4 to 6 h
- onset of action (after oral administration): 0.5 to 1 h
- peak effect (time) (after oral administration): 2 to 4 h
